Measured data: PubChem BioAssay AID1159508 (Drosophila RNAi Screening Center, 2015)
Here is a random part of 812 reagents. 18 of all reagents (2.2%) count as active. 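Calls include both increased and decreased ATP; roughly one in four reagents has no third replicate value.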 Unmarked entries are inactive. Reagents against one gene are numbered here. Not all columns of the deposit are shown. The record does not give: the amount of reagent.

Assay: 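Overall cell fitness after RNAi as a quality check of the library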
System: Drosophila S2R+ cells
Reagent: long dsRNA against Drosophila genes
Time to read-out: 5 days
Measurement: 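Luminescent ATP signal as a proxy for cell fitness after 5 days of RNAi, given as a z-score in each replicate and averaged over replicates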
Reading the numbers: mean ATP z-score: higher = more total ATP luminescence
Active means: In these data the active calls have mean ATP z-score at about -2 or lower, or at about 2 or higher
Meaning of the calls: active = strong ATP change (up or down); inactive = no strong ATP change

Spf30 #1 | mean ATP z-score = -0.949
Spf30 #2 | mean ATP z-score = 0.355
SC35 #1 | mean ATP z-score = -0.258
SC35 #2 | mean ATP z-score = 0.564
Ddx1 #1 | mean ATP z-score = -0.232
Ddx1 #2 | mean ATP z-score = -0.416
AGO3 #1 | mean ATP z-score = -0.0049
AGO3 #2 | mean ATP z-score = 0.207
CG11454 #1 | mean ATP z-score = -0.604
CG11454 #2 | mean ATP z-score = 0.264
vig #1 | mean ATP z-score = 0.558
vig #2 | mean ATP z-score = 0.699
NHP2 #1 | mean ATP z-score = 0.0775
NHP2 #2 | mean ATP z-score = -1.04
CG4849 #1 | mean ATP z-score = -1.02
CG4849 #2 | mean ATP z-score = -1.03
Pus7 #1 | mean ATP z-score = 0.0873
Pus7 #2 | mean ATP z-score = -0.699
Rsf1 #1 | mean ATP z-score = 0.0348
Rsf1 #2 | mean ATP z-score = 0.281
pasha #1 | mean ATP z-score = 0.216
pasha #2 | mean ATP z-score = -0.541
pAbp #1 | mean ATP z-score = -0.592
pAbp #2 | mean ATP z-score = -0.312
ais #1 | mean ATP z-score = -0.442
ais #2 | mean ATP z-score = 0.715
CG6937 #1 | mean ATP z-score = -0.45
CG6937 #2 | mean ATP z-score = 0.313
eEF1delta #1 | mean ATP z-score = 0.598
eEF1delta #2 | mean ATP z-score = -0.179
Pop4 #1 | mean ATP z-score = -0.187
Pop4 #2 | mean ATP z-score = 1.7
mIF2 #1 | mean ATP z-score = 0.507
mIF2 #2 | mean ATP z-score = -0.13
eIF3d2 #1 | mean ATP z-score = -0.166
eIF3d2 #2 | mean ATP z-score = 0.511
xmas #1 | mean ATP z-score = -0.357
xmas #2 | mean ATP z-score = -0.706
HnRNP-K #1 | mean ATP z-score = -0.482
HnRNP-K #2 | mean ATP z-score = 0.62
CG8778 #1 | mean ATP z-score = -0.244
CG8778 #2 | mean ATP z-score = -0.564

Sorted by “mean ATP z-score” (highest first): some entries from above.
Pop4 #2 | mean ATP z-score = 1.7
eIF3d2 #2 | mean ATP z-score = 0.511
mIF2 #1 | mean ATP z-score = 0.507
mIF2 #2 | mean ATP z-score = -0.13
eIF3d2 #1 | mean ATP z-score = -0.166
xmas #1 | mean ATP z-score = -0.357
xmas #2 | mean ATP z-score = -0.706
